1 molecule from PMC7255042 can be followed below.

No constants are given. Whether binding was seen depends on the method and setting. In cells and extracts the contact can be indirect.

This assay addresses Notch intracellular domain. Put plainly: co-IP; coimmunoprecipitation assay; cells, antibodies and conditions not told in the main text (Figure S4C).

B1: AT-rich interaction domain-containing protein 3B (protein, UniProt Q8IVW6 1-561)
chain: MEPLQQQQQQQQQQQKQPHLAPLQMDAREKQGQQMREAQFLYAQKLVTQPTLLSATAGRPSGSTPLGPLARVPPTAAVAQVFERGNMNSEPEEEDGGLEDEDGDDEVAEVAEKETQAASKYFHVQKVARQDPRVAPMSNLLPAPGLPPHGQQAKEDHTKDASKASPSVSTAGQPNWNLDEQLKQNGGLAWSDDADGGRGREISRDFAKLYELDGDPERKEFLDDLFVFMQKRGTPINRIPIMAKQILDLYMLYKLVTEKGGLVEIINKKIWREITKGLNLPTSITSAAFTLRTQYMKYLYAYECEKKALSSPAELQAAIDGNRREGRRPSYSSSLFGYSPAAATAAAAAGAPALLSPPKIRFPILGLGSSSGTNTSSPRISPATTLRKGDGAPVTTVPVPNRLAVPVTLASQQAGTRTAALEQLRERLESGEPAEKKASRLSEEEQRLVQQAFQRNFFSMARQLPMKIRINGRAEDRAEASAAALNLTTSSIGSINMSVDIDGTTYAGVLFAQKPVVHLITGSAPQSLGSSASSSSSSHCSPSPTSSRGTPSAEPSTSWSL
For the molecule B1, the binding result is “no binding”.
